Results from publication PMC11095456.
Results are given in words; binding and its absence hold for the method and conditions named. Binding seen in cells or lysates may run through a third protein. Here binding means that the protein was enriched with, or labelled near, the bait; the list need not be complete.

Target: EVI1 (human (endogenous in MUTZ3))
Assay: affinity purification with mass spectrometry; IP for EVI1 and MS (DIA) in MUTZ3 cells with 4× PLDLS or 4× PLASS induced with doxycycline (1 μg/ml) for 72 hours; abundances within the EVI1 IP compared

binding: binds
B1: ZEB2 (protein, UniProt O60315 1-1214)
chain: MKQPIMADGPRCKRRKQANPRRKNVVNYDNVVDTGSETDEEDKLHIAEDDGIANPLDQETSPASVPNHESSPHVSQALLPREEEEDEIREGGVEHPWHNNEILQASVDGPEEMKEDYDTMGPEATIQTAINNGTVKNANCTSDFEEYFAKRKLEERDGHAVSIEEYLQRSDTAIIYPEAPEELSRLGTPEANGQEENDLPPGTPDAFAQLLTCPYCDRGYKRLTSLKEHIKYRHEKNEENFSCPLCSYTFAYRTQLERHMVTHKPGTDQHQMLTQGAGNRKFKCTECGKAFKYKHHLKEHLRIHSGEKPYECPNCKKRFSHSGSYSSHISSKKCIGLISVNGRMRNNIKTGSSPNSVSSSPTNSAITQLRNKLENGKPLSMSEQTGLLKIKTEPLDFNDYKVLMATHGFSGTSPFMNGGLGATSPLGVHPSAQSPMQHLGVGMEAPLLGFPTMNSNLSEVQKVLQIVDNTVSRQKMDCKAEEISKLKGYHMKDPCSQPEEQGVTSPNIPPVGLPVVSHNGATKSIIDYTLEKVNEAKACLQSLTTDSRRQISNIKKEKLRTLIDLVTDDKMIENHNISTPFSCQFCKESFPGPIPLHQHERYLCKMNEEIKAVLQPHENIVPNKAGVFVDNKALLLSSVLSEKGMTSPINPYKDHMSVLKAYYAMNMEPNSDELLKISIAVGLPQEFVKEWFEQRKVYQYSNSRSPSLERSSKPLAPNSNPPTKDSLLPRSPVKPMDSITSPSIAELHNSVTNCDPPLRLTKPSHFTNIKPVEKLDHSRSNTPSPLNLSSTSSKNSHSSSYTPNSFSSEELQAEPLDLSLPKQMKEPKSIIATKNKTKASSISLDHNSVSSSSENSDEPLNLTFIKKEFSNSNNLDNKSTNPVFSMNPFSAKPLYTALPPQSAFPPATFMPPVQTSIPGLRPYPGLDQMSFLPHMAYTYPTGAATFADMQQRRKYQRKQGFQGELLDGAQDYMSGLDDMTDSDSCLSRKKIKKTESGMYACDLCDKTFQKSSSLLRHKYEHTGKRPHQCQICKKAFKHKHHLIEHSRLHSGEKPYQCDKCGKRFSHSGSYSQHMNHRYSYCKREAEEREAAEREAREKGHLEPTELLMNRAYLQSITPQGYSDSEERESMPRDGESEKEHEKEGEDGYGKLGRQDGDEEFEEEEEESENKSMDTDPETIRDEEETGDHSMDDSSEDGKMETKSDHEEDNMEDGM
